Assay results from the supplement of paper PMC7666118.
This is one part of the list.

Protein sequences, listed by entry. Tags and fused reporters are not part of them. Lines headed by an entry give the natural chain unless they say otherwise; changes in a name come on top.
UniProt Q9H0V9: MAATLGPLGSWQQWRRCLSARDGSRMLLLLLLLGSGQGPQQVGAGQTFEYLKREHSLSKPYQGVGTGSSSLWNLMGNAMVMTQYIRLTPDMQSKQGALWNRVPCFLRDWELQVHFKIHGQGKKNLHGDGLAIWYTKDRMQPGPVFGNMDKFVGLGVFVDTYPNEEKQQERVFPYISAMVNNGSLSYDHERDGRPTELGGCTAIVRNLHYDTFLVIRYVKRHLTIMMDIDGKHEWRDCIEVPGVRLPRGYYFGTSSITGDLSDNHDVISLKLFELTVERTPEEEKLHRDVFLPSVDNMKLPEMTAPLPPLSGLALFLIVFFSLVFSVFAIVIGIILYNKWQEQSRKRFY
UniProt O43462: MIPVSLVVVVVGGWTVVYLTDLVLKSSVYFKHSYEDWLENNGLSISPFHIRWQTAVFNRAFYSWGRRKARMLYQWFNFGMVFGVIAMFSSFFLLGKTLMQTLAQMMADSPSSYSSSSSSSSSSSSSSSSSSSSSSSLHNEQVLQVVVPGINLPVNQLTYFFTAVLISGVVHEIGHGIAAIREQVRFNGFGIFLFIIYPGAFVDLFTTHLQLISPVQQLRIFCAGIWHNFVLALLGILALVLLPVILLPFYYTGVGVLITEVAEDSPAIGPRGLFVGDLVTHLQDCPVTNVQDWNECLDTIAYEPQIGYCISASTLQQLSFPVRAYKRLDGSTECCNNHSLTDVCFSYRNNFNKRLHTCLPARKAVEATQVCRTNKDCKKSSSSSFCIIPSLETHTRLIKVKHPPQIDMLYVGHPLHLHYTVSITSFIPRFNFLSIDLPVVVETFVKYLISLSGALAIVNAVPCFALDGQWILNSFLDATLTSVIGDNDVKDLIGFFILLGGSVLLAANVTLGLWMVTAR
UniProt Q9BSK0: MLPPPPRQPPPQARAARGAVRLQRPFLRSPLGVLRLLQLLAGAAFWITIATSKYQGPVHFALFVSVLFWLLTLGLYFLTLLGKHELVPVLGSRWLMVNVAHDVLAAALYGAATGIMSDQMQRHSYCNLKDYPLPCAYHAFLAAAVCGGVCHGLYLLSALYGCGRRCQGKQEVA
UniProt Q5VSG8: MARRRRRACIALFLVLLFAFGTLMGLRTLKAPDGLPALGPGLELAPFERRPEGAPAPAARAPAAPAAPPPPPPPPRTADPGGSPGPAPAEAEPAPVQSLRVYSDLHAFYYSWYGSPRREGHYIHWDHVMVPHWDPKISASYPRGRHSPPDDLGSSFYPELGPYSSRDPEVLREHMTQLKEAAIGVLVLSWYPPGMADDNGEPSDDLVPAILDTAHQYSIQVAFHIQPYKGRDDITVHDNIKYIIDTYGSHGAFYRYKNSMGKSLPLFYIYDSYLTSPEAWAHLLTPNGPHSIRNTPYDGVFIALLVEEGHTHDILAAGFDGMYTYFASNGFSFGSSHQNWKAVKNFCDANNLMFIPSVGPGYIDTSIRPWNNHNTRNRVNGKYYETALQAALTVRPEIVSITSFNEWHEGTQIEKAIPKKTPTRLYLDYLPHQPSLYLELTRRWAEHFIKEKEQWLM
UniProt Q15345: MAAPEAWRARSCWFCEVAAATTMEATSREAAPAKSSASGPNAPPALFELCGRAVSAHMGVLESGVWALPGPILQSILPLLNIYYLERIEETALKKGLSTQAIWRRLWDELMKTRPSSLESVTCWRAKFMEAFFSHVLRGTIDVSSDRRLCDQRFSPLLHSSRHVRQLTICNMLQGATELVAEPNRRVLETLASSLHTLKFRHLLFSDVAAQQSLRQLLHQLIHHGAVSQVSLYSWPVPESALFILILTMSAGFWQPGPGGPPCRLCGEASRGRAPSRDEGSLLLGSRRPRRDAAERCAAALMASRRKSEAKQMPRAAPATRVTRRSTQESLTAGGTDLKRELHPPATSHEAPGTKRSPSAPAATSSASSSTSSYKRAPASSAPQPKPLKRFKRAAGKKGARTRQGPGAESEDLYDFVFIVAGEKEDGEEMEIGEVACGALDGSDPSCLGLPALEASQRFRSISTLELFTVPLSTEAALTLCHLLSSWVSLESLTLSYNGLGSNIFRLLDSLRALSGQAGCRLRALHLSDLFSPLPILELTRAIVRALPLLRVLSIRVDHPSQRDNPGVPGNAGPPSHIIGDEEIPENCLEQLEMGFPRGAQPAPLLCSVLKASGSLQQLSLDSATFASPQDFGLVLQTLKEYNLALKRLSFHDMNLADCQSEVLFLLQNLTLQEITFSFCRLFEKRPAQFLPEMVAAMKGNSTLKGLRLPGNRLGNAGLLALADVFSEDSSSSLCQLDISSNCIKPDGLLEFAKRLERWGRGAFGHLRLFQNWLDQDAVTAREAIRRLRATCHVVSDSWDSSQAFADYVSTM
UniProt P38571: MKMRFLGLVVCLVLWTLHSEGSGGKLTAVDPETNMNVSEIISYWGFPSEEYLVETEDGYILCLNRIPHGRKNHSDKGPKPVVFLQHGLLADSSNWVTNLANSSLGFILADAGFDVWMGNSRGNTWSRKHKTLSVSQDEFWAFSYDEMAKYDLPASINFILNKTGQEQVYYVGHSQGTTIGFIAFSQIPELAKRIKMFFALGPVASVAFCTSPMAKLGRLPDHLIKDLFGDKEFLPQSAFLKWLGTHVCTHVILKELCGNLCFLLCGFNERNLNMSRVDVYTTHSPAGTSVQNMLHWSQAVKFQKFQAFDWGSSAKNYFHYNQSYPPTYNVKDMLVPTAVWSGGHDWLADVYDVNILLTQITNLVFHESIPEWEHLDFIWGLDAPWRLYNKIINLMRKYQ
UniProt Q7L5Y9: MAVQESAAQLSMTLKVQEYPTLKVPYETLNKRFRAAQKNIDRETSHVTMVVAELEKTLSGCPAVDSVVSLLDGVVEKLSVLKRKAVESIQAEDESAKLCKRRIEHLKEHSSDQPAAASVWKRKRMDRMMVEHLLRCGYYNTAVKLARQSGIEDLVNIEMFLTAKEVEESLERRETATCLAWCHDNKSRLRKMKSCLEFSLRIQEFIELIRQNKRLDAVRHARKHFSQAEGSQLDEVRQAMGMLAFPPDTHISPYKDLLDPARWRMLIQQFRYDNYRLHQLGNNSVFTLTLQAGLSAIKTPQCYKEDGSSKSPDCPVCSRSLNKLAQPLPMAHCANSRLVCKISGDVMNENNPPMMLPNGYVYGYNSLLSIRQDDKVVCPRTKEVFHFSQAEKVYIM
UniProt Q05BQ5, whole entry: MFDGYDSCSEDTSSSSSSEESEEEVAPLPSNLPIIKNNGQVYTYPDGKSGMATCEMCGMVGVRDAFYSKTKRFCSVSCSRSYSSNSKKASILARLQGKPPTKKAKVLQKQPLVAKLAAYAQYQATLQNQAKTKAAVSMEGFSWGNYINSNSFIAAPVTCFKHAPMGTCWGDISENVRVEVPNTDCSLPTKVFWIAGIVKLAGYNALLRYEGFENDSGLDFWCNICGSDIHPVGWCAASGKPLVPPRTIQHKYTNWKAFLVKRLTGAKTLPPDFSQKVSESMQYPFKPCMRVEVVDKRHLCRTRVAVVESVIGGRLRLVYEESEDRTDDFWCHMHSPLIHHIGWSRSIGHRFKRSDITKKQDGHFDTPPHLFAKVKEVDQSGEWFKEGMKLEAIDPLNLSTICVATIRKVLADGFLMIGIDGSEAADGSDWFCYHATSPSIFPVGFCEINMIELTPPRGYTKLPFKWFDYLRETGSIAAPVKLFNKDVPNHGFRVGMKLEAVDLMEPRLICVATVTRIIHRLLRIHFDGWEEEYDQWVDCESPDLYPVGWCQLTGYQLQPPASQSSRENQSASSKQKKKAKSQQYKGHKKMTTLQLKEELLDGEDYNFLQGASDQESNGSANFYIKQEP
UniProt P40926: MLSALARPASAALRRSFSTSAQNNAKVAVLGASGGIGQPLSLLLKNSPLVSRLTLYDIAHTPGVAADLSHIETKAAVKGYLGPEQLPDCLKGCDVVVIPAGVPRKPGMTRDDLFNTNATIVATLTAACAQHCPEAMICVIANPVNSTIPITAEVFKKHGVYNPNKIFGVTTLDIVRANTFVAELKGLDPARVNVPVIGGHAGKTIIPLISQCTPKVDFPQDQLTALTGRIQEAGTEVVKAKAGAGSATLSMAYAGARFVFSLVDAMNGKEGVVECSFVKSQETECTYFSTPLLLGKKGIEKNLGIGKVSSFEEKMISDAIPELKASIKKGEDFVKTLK
UniProt O43766: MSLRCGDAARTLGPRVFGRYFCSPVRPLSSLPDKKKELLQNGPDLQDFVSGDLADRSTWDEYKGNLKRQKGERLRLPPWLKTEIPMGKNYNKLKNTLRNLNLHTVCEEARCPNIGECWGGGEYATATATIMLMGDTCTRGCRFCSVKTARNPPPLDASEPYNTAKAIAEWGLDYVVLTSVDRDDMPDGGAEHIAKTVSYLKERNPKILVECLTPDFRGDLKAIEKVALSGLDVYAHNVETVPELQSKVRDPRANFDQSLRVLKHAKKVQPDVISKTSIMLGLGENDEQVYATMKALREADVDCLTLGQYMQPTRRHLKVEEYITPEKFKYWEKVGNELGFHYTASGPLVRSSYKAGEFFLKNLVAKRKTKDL
UniProt O95202: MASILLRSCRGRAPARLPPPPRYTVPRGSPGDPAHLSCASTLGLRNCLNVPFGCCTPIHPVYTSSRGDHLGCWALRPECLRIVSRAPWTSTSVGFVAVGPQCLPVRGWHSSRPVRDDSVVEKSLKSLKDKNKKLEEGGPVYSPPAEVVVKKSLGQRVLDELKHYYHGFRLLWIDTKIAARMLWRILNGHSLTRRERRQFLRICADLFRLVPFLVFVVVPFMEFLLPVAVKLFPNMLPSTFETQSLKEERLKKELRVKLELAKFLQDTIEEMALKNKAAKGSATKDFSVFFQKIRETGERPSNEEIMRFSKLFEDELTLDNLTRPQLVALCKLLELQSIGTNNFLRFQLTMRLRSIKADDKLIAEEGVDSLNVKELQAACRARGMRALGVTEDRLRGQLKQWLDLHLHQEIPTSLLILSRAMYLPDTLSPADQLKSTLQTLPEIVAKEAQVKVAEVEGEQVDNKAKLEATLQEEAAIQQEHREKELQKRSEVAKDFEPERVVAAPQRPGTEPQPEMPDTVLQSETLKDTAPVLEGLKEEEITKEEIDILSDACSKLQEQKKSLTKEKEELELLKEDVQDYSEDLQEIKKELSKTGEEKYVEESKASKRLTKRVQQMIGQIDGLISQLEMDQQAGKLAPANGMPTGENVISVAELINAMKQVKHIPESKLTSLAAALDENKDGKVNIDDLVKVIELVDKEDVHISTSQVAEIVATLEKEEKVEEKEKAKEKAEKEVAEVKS
UniProt Q96BZ8: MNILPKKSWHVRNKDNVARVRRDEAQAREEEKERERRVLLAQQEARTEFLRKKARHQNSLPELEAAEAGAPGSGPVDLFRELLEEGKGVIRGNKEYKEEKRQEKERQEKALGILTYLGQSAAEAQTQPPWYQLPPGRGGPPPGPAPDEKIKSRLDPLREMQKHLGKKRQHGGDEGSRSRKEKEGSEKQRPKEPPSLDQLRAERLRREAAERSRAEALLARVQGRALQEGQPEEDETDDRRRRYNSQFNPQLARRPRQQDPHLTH
UniProt Q66K74: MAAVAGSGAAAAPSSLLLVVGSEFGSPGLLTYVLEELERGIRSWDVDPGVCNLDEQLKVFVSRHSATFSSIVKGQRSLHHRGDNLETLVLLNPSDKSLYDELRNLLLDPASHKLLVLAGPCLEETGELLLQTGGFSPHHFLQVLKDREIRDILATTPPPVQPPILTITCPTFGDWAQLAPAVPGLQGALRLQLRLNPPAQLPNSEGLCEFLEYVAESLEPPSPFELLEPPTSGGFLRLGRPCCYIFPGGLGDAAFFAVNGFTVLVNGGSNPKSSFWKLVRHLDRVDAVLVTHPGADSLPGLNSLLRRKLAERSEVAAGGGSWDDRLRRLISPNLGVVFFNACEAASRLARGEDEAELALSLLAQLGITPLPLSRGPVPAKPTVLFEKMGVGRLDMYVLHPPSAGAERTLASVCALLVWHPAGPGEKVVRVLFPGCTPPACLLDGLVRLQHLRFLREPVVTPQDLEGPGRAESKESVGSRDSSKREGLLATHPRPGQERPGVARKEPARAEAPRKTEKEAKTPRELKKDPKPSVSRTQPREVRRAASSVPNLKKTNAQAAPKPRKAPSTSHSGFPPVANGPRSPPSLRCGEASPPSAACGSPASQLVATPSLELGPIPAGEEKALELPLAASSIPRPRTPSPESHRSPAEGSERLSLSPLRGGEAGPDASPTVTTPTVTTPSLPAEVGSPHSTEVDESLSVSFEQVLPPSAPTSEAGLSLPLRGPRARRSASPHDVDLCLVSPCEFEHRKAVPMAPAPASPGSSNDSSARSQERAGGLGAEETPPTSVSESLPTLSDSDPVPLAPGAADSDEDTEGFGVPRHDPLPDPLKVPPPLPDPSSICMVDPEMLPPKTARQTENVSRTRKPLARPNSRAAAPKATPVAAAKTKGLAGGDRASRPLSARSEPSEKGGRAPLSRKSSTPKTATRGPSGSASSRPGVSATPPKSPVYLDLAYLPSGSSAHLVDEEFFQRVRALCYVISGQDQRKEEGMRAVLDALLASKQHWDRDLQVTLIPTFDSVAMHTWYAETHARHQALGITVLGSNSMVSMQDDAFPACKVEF

What follows are targets tested with COc1ccc(Cn2ccc3cc(C)c(C(=O)NO)cc32)cc1 (assay: dose-dependent thermal stabilisation call (2D-TPP, DLPTP, 10% FDR) (binary (1 = stabilised)); higher = stabilised by the compound). Conditions: system: HL-60 intact cells; concentration range 0.04-10 µM.
Procedure: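 2D thermal proteome profiling in intact HL-60 cells treated with BRD-3811 (0, 0.04, 0.29, 2, 10 uM) for 90 min at 37 C, then heated 3 min at one of 12 temperatures (42-63.9 C). Soluble protein was quantified by TMT10 MS. The value is the DLPTP call of the paper: dose-dependent thermal stabilisation over all temperatures at 10% FDR (F-test of a dose-response against a flat model); one experiment, one call per tested protein.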

Target	dose-dependent thermal stabilisation call
MAP3K7IP2 (UniProt Q9NYJ8)	inactive: 0
L2HGDH (UniProt Q9H9P8)	active: 1
LRWD1 (UniProt Q9UFC0)	inactive: 0
LOC221710	inactive: 0
MAPKAPK3 (UniProt Q16644)	inactive: 0
LNPEP (UniProt Q9UIQ6)	inactive: 0
LMAN2L (UniProt Q9H0V9)	inactive: 0
MAN2A1 (UniProt Q16706)	inactive: 0
LRPPRC (UniProt P42704)	inactive: 0
LOC348262	inactive: 0
MBTPS2 (UniProt O43462)	inactive: 0
LMBRD2 (UniProt Q68DH5)	inactive: 0
MBOAT7 (UniProt Q96N66)	inactive: 0
LPCAT2 (UniProt Q7L5N7)	inactive: 0
MARVELD1 (UniProt Q9BSK0)	inactive: 0
LACTB2 (UniProt Q53H82)	inactive: 0
MANEAL (UniProt Q5VSG8)	inactive: 0
LRRC41 (UniProt Q15345)	inactive: 0
LIPA (UniProt P38571)	inactive: 0
MAT2B (UniProt Q9NZL9)	inactive: 0

A different layout for some results above.
MBOAT7 (UniProt Q96N66)
  dose-dependent thermal stabilisation call: inactive: 0
LPCAT2 (UniProt Q7L5N7)
  dose-dependent thermal stabilisation call: inactive: 0

Carrying on:

Target	dose-dependent thermal stabilisation call
MCM3 (UniProt P25205)	inactive: 0
LOC727762	inactive: 0
MAN1B1 (UniProt Q9UKM7)	inactive: 0
MAEA (UniProt Q7L5Y9)	inactive: 0
MBTD1 (UniProt Q05BQ5)	inactive: 0
MDH2 (UniProt P40926)	active: 1
LRSAM1 (UniProt Q6UWE0)	inactive: 0
MAPKAPK2 (UniProt P49137)	inactive: 0
MAPK3 (UniProt P27361)	inactive: 0
MARCKSL1 (UniProt P49006)	inactive: 0
LOC100133930	inactive: 0
LIAS (UniProt O43766)	inactive: 0
LSM7 (UniProt Q9UK45)	inactive: 0
LAGE3 (UniProt Q14657)	inactive: 0
MCART6 (UniProt Q5H9E4)	inactive: 0
LIN7C (UniProt Q9NUP9)	inactive: 0
LETM1 (UniProt O95202)	inactive: 0
LOC100131572	inactive: 0
LENG1 (UniProt Q96BZ8)	inactive: 0
MAP1S (UniProt Q66K74)	inactive: 0
